Test [1] has as its target ATPB (human (endogenous in HK2)) (UniProt P06576). Nature of the test: co-IP; HK2 cells co-expressing FLAG-Ub, with HKDC1 knock-down or HKDC1 overexpression, with or without MG132; interaction of ATPB and Murf1 read by blot.
The target in test [2] is T1, hexokinase domain-containing 1 (HKDC1) (human (endogenous in HK2)) (UniProt Q2TB90).
T1 sequence: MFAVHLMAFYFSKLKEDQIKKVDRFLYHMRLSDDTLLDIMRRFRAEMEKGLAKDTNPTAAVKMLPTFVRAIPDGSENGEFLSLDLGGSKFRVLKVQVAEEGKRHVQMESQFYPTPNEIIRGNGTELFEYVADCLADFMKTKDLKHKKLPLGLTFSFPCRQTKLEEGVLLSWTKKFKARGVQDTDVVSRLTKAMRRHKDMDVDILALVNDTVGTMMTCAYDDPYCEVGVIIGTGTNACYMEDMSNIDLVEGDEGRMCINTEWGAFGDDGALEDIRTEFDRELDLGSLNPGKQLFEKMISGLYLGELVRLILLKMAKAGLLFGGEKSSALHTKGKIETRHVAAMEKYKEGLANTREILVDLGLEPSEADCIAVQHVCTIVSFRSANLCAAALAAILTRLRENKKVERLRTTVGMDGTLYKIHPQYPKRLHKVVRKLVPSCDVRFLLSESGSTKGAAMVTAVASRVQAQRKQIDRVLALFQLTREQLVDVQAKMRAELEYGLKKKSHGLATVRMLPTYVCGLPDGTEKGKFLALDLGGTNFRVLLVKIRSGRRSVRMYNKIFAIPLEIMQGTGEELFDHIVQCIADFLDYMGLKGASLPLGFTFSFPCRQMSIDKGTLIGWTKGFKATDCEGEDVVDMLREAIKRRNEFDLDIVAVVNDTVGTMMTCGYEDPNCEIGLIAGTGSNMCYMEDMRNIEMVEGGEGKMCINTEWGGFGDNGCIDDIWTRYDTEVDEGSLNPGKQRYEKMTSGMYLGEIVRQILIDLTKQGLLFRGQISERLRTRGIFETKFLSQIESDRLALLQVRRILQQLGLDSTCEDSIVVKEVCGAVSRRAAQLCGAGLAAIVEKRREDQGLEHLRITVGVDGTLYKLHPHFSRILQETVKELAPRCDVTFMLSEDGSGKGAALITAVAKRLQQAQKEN
Kind of test: co-IP; lead acetate-treated HK2 cells; anti-HKDC1 antibody and magnetic beads, overnight incubation; immunoblotting; rabbit and mouse IgG as negative controls.

Sequences of proteins named here, by UniProt entry; tags and fusion partners are left off.
UniProt Q969Q1: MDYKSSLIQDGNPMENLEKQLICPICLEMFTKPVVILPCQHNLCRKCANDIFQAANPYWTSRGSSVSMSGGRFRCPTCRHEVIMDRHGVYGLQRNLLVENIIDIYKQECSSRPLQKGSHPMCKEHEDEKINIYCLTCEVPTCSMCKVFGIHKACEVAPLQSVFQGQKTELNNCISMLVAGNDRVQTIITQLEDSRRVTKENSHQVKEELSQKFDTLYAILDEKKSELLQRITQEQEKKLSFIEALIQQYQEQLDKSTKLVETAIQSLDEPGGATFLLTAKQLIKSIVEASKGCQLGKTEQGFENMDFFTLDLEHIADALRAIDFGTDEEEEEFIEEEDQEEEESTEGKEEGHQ

Results are given in words; binding and its absence hold for the method and conditions named. In cells and extracts the contact can be indirect. Some binding calls cover weakened binding; strength is not graded here.

With “E3 ligase Murf1 (from UniProt Q969Q1 1-353) (enzyme)”, the binding entry in test [1] is “binds”.
With ATPB (from UniProt P06576 48-529), the binding result in test [2] is on record as “binds”.

The record behind these values is paper PMC12160926.
